# The list shows a part of the results.
# By UniProt entry, the sequences of proteins in these tests, tags left out.
# UniProt Q6ZW49, whole entry, looked up: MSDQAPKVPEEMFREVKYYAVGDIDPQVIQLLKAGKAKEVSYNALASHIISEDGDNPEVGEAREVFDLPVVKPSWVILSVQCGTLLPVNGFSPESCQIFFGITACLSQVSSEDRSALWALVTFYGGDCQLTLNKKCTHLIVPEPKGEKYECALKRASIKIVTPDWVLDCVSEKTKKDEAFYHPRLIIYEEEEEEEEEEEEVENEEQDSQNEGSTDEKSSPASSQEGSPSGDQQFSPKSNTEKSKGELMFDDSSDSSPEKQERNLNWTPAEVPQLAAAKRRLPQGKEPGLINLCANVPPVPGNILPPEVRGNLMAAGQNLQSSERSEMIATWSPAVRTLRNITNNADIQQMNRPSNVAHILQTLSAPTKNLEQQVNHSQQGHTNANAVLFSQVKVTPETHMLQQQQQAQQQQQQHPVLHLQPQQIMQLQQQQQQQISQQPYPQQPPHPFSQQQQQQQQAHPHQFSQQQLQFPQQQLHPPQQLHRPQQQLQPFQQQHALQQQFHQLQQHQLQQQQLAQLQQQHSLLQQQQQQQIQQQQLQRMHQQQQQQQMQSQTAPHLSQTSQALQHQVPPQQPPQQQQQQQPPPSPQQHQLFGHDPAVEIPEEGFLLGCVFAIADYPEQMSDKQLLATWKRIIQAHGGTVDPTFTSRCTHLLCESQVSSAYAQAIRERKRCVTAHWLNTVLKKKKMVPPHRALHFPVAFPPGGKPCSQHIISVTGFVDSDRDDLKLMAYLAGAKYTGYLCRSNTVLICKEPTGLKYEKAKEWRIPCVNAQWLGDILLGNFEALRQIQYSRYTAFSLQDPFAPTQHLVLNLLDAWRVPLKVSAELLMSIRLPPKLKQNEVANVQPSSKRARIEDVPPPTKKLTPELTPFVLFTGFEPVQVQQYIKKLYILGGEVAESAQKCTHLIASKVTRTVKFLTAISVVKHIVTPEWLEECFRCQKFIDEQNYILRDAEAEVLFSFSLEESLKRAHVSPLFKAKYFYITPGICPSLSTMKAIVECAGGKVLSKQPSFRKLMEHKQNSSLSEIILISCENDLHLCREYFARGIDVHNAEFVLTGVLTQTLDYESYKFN
# UniProt Q86U86, whole entry, looked up: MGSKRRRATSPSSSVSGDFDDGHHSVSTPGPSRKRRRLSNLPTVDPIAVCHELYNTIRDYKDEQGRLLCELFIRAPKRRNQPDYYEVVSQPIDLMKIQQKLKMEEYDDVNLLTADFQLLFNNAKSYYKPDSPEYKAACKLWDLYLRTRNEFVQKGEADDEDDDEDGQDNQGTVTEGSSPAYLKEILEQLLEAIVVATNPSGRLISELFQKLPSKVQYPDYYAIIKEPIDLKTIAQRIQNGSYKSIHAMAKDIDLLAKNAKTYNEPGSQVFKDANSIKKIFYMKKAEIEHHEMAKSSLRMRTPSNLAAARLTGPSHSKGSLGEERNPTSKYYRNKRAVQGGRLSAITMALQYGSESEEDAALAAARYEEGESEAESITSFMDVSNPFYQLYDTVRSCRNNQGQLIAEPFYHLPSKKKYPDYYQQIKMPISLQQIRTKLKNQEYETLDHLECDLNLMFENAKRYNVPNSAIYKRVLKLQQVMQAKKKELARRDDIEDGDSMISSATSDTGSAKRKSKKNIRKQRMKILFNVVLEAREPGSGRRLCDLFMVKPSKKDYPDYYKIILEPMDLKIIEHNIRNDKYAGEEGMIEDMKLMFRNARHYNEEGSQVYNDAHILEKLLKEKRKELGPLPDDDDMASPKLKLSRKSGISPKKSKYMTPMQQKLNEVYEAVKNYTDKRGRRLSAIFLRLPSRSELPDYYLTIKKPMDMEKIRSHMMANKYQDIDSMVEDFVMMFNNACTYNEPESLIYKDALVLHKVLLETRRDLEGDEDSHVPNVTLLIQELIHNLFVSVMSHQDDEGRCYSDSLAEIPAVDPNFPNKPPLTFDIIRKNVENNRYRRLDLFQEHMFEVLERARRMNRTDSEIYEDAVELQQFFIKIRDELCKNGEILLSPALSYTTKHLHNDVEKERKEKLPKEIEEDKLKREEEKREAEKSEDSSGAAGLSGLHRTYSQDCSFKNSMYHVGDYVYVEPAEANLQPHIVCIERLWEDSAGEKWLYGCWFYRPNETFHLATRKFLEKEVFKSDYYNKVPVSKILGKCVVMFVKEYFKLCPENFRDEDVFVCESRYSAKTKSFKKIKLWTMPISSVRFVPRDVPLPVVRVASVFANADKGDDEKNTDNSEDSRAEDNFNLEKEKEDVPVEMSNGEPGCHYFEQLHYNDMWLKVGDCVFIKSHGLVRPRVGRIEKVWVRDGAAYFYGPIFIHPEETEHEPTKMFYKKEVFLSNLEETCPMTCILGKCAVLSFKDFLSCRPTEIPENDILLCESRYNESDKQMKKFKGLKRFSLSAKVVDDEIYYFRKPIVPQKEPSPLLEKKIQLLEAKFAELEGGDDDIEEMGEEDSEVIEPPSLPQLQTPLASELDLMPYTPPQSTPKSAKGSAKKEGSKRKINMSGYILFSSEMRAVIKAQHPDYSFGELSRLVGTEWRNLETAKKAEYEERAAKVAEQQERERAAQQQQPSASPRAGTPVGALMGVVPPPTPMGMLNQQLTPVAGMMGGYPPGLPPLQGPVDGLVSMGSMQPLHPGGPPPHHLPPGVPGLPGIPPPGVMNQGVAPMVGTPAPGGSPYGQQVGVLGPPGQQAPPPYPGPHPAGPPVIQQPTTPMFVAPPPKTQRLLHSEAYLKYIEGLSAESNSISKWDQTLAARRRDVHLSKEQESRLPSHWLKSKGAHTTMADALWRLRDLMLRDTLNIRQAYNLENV
# Experiments:
# [1] = target: PAXIP1_Q6ZW49_933_HIVTPEWLEECFR (UniProt Q6ZW49); test: probe-labelled cysteine peptide fold change vs DMSO (competition) (log2 fold change); higher = less target engagement (more negative = stronger competition); details: THP-1, incubation time: 4 h
# [2] = target: PBRM1_Q86U86_979_NSMYHVGDYVYVEPAEANLQPHIVCIER (UniProt Q86U86); test: as above; details: THP-1, incubation time: 4 h
# 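Further: competitive profiling in live THP-1 cells: cysteine peptides tagged with an iodoacetamide desthiobiotin (IA-DTB) probe, intensity after compound treatment relative to DMSO-treated cells.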
compound,measurement,setting,value
Cc1cc(C(=O)N2CCCN(C(=O)CCl)CC2)ccc1-c1ccccc1 [compound 10],probe-labelled cysteine peptide fold change,[1]; 10 µM,-0.00632
same,probe-labelled cysteine peptide fold change,[1]; 50 µM,0.0808
same,probe-labelled cysteine peptide fold change,[2]; 10 µM,0.294
same,probe-labelled cysteine peptide fold change,[2]; 50 µM,-0.29

# — the supplement of paper PMC12067093, “Discovery and optimisation of a covalent ligand for TRIM25 and its application to targeted protein ubiquitination” (Chemical Science, 2025)
